Values joined by “and” are separate entries in the source; they are usually repeats but may differ in a detail not shown here. Equal values may be shown once.
Tests used:
[1] = system: db/db mice; assay: Repeated (28-day) DS20060511 treatment of db/db mice; format: in vivo, mouse; conditions: 10 mg/kg
Protocol: db/db mice were acclimatized to a 6 h restricted feeding pattern from 10 am to 4 pm prior to the start of the experiment. For 28 days from 6 weeks of age, the mice received oral administration of 10 mg kg^−^1 of DS20060511 or vehicle once a day, 15 min prior to their feeding. On day 1 and day 28, the blood glucose levels were measured between 10 am to 4 pm. Blood glucose levels were measured using Glutest Every in blood samples collected from the tail vein. Daily food intake was monitored throughout the study, and the body weight, blood glucose, and plasma insulin were measured on day 1 and day 28. The hemoglobin A1c (HbA1c) level was also measured with a HLC-723G8 Automated Glycohemoglobin Analyzer on day 1 and day 28 (Tosoh, Tokyo, Japan). The triceps surae muscle (skeletal muscle), heart, epididymal WAT, and liver were excised immediately after euthanasia, and the tissue weights were measured on day 29. The glycogen contents of the muscle, heart, and liver were measured as described previously,[52] with some modifications. In brief, each tissue sample (50–100 mg) was weighed and boiled in 0.75 mL of 8 M KOH. After cooling, 0.25 mL of 1 M Na2SO4, followed by 2 mL of 99.5% ethanol, was added to precipitate the glycogen. The samples were centrifuged and the glycogen precipitates were dissolved in distilled water. Glycogen was degraded to glucose by treatment with amyloglucosidase (Sigma–Aldrich) at 55 °C for 60 min, and the glucose concentration was determined with Glucose CII Test Wako (FUJIFILM Wako Pure Chemical).

[2] = system: C57BL/6 mice; assay: Indirect calorimetry and exercise endurance under stepwise treadmill running; format: in vivo, mouse; conditions: exercise tolerance test, 30 mg/kg, individual mice
Protocol: The mice were acclimatized to the treadmill by allowing them to run at 10 m min^−1 for 10 min on the day before the test. On the day of the test, the mice received oral administration of 30 mg kg^−1 of DS20060511 or vehicle 15 min before they were made to run. The treadmill was started at a velocity of 10 m min^−1, with the speed increased stepwise by 2 m min^−1 every 3 min, to assess the exercise endurance capacity as described previously. Measurements of the oxygen consumption (VO2) and exhaled carbon dioxide (VCO2) under treadmill running were conducted with the ARCO-2000 magnetic-type mass spectrometric calorimeter (ARCO System, Kashiwa, Japan) connected to the treadmill chamber (MB-2000, ARCO System). The RER was calculated as the VCO2/VO2 ratio and the substrate utilization rates were calculated using Frayn’s formula[51]: rate of glucose oxidation = 4.585VCO2 − 3.226VO2; rate of fat oxidation = 1.695VO2 − 1.701VCO2. The exercise endurance capacity under treadmill running was determined by measuring the time from the start to the time until the mice ceased to run because of exhaustion, which was defined as remaining on the shocker plate for more than 10 sec. Immediately after the exercise, the blood glucose and lactate levels were measured using Glutest Every and Lactate Pro2 (ARKRAY, Kyoto, Japan), respectively, in blood samples collected from the tail vein.

## COc1ccc2c(C)c(C(=O)O)ccc2c1C1C2=C(CC(C)(C)CC2=O)OC2=C1C(=O)CC(C)(C)C2 [DS20060511]
[1]; accumulated
  Food intake (g) Accumulated: 674.8 g
[1]; average
  Food intake (g) Average: 4.02 g
[1]; heart, individual animals
  Glycogen (mg/g tissue) Heart: 0.31 mg/g tissue and 0.62 mg/g tissue and 0.11 mg/g tissue and 0.14 mg/g tissue and 0.08 mg/g tissue and 0.09 mg/g tissue
[1]; liver, individual animals
  Glycogen (mg/g tissue) Liver: 1.51 mg/g tissue and 1.75 mg/g tissue and 1.68 mg/g tissue and 1.59 mg/g tissue and 1.18 mg/g tissue and 1.74 mg/g tissue
[1]; muscle, individual animals
  Glycogen (mg/g tissue) Muscle: 0.30 mg/g tissue and 0.93 mg/g tissue and 0.60 mg/g tissue and 0.75 mg/g tissue and 0.88 mg/g tissue
[2]
  Blood lactate: 6.9 nmol/L and 6.5 nmol/L and 5.9 nmol/L and 6.7 nmol/L and 5.7 nmol/L and 7.5 nmol/L and 9.9 nmol/L
  Time until exhaustion: 47 min and 41 min and 50 min and 42 min and 44 min (2×) and 34 min

Source: publication PMC8379256, “A xanthene derivative, DS20060511, attenuates glucose intolerance by inducing skeletal muscle-specific GLUT4 translocation in mice” (Communications Biology, 2021)
